Our source for the binding values is article doi:10.1101/2025.04.06.647459.

The chains behind the UniProt entries cited, without tags or fusion partners.
UniProt P63168: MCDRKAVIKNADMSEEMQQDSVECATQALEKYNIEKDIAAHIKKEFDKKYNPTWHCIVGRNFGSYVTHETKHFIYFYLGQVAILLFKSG
UniProt P62259: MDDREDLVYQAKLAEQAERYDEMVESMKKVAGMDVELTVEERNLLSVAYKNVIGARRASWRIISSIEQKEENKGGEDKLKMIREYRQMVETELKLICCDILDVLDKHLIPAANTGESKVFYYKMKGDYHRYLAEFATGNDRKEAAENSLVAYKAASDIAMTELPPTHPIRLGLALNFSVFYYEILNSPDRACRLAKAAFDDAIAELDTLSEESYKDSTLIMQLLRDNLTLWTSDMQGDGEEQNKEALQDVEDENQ

Like-named read-outs stand apart in the source and are kept apart here. Results are given in words; binding and its absence hold for the method and conditions named. In cells and extracts the contact can be indirect. Some entries that bind do so weakly or less than the wild type. For some of these results: Sequences can lack the tags named with a protein.

Holding throughout (assay): co-IP
The target in experiment [1] is EML3 TQT86AAA mutant, expressed from mouse cDNA in HEK293T cells (mouse) (UniProt Q8VC03).
For experiment [2], the target named is T1, EML3, untagged, expressed from mouse cDNA in HEK293T cells (mouse) (UniProt Q8VC03).
T1 sequence: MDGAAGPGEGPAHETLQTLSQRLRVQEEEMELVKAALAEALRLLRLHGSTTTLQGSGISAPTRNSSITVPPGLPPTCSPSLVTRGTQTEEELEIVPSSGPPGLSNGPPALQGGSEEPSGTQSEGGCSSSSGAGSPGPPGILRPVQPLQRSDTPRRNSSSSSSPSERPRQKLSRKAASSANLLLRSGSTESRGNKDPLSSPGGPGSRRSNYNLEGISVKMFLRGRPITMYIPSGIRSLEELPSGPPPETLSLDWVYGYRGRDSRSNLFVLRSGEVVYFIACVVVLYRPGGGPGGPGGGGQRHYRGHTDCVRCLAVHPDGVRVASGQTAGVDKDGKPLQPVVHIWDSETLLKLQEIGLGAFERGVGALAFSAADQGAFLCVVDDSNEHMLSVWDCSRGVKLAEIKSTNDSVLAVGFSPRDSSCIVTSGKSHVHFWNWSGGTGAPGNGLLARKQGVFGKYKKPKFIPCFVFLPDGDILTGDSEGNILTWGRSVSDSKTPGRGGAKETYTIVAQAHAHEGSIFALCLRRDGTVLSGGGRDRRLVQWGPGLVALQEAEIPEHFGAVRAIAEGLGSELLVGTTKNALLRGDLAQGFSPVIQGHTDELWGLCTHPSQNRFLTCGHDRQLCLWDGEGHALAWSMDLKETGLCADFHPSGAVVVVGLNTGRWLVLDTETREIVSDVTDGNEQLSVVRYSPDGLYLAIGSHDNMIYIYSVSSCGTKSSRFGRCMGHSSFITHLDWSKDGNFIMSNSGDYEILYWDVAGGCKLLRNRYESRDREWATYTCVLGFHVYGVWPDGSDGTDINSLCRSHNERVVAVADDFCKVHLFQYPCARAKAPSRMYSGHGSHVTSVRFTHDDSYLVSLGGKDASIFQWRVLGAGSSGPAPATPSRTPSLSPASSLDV

The target of experiment [3] is T1, EML3, untagged, expressed from mouse cDNA in HEK293T cells (mouse). The source holds these as a separate data set.

Regarding “DYNLL1-FLAG, expressed from mouse cDNA in HEK293T cells (from UniProt P63168 1-89)”, the figures for the binding result in experiment [1] and in experiment [2] were “no binding” and “binds”, respectively.

For “YWHAE-FLAG (14-3-3 epsilon), expressed from mouse cDNA in HEK293T cells (from UniProt P62259 1-255)”, the binding entry in experiment [2] is recorded as “binds”.

B1: 14-3-3 gamma (YWHAG), expressed in transfected cells (protein, UniProt P61982 1-247)
chain: MVDREQLVQKARLAEQAERYDDMAAAMKNVTELNEPLSNEERNLLSVAYKNVVGARRSSWRVISSIEQKTSADGNEKKIEMVRAYREKIEKELEAVCQDVLSLLDNYLIKNCSETQYESKVFYLKMKGDYYRYLAEVATGEKRATVVESSEKAYSEAHEISKEHMQPTHPIRLGLALNYSVFYYEIQNAPEQACHLAKTAFDDAIAELDTLNEDSYKDSTLIMQLLRDNLTLWTSDQQDDDGGEGNN
For the molecule B1, the binding entry in experiment [3] is reported as “binds”.
